No constants are given. Whether binding was seen depends on the method and setting. For some assays here: Binding seen in cells or lysates may run through a third protein. Some results given as binding are weak or reduced against the parent protein; the word gives no strength.
Legend:
[1] = target: recombinant HMGB1 with a calmodulin-binding protein (CBP) tag (UniProt P09429); test: pull-down; CBP-tagged HMGB1 or 10 µg CBP peptide incubated overnight at 4°C with HEK-Blue hTLR4 cell lysates, captured on calmodulin beads, washed with PBS 0.1% Triton X-100, immunoblot with anti-TLR4; only the target purified
[2] = target: recombinant disulfide HMGB1 protein (UniProt P09429); test: SPR; HMGB1 coated on the chip; hTLR4 as analyte (100 nM) plus increasing amounts of PSMs; both purified

Sequences of proteins named here, by UniProt entry; tags and fusion partners are left off. A change or cut given only in a name is not applied to a line headed by its entry.
UniProt P09429: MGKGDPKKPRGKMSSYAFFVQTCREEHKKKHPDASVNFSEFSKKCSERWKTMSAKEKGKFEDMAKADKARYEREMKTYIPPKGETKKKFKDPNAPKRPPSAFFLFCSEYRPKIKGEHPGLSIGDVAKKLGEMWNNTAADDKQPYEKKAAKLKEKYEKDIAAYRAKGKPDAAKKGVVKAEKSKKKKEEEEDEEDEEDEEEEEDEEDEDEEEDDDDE
UniProt O00206: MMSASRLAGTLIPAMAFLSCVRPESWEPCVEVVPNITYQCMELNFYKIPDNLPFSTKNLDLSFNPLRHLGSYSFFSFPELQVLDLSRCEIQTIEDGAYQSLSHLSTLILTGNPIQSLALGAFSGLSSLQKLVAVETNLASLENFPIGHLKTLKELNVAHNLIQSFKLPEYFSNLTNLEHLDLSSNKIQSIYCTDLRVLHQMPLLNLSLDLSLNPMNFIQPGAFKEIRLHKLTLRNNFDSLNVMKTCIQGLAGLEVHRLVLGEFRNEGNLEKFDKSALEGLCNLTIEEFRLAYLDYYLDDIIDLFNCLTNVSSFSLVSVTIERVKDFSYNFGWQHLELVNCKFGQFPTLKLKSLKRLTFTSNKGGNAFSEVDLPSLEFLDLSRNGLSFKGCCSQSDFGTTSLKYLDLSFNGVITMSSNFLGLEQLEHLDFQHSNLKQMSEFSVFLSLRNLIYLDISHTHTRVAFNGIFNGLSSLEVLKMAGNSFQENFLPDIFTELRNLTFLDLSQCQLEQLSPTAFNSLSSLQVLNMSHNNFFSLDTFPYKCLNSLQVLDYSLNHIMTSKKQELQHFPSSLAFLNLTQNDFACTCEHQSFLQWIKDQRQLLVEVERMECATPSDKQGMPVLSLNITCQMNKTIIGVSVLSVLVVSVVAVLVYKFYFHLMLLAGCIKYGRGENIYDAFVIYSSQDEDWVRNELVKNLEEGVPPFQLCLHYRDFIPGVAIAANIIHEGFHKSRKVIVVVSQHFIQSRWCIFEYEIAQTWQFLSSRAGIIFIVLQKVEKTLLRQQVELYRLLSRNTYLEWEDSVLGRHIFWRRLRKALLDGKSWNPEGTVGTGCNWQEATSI

Row | Substance | binding [1] | binding [2]
1 | human TLR4 in HEK-Blue hTLR4 cell lysates (from UniProt O00206 24-839) (receptor) | binds | –
2 | recombinant human TLR4 protein (ectodomain, Glu24-Lys631) (from UniProt O00206 24-631) (domain or fragment) | – | binds

Reference: article PMC5996891, “Staphylococcus aureus Phenol-Soluble Modulins α1–α3 Act as Novel Toll-Like Receptor (TLR) 4 Antagonists to Inhibit HMGB1/TLR4/NF-κB Signaling Pathway” (Frontiers in Immunology, 2018)
